Laboratory results taken from PMC12310523.
Results are given in words; binding and its absence hold for the method and conditions named. For some assays here: Binding seen in cells or lysates may run through a third protein. Some results given as binding are weak or reduced against the parent protein; the word gives no strength. Where a sequence is shown, tags or fusion partners need not be part of it.

Assays:
[1] = target: T1, Flag–TTP (mouse), N-terminally Flag-tagged tristetraprolin (mouse) (UniProt P22893); experiment: co-IP; anti-Flag M2 agarose beads on lysates of HEK293T cells co-transfected with Flag–TTP and HA–RESIST or mCherry; lysate treated with RNase A; 150 mM NaCl, washes with 300 mM NaCl; immunoblot
T1 sequence: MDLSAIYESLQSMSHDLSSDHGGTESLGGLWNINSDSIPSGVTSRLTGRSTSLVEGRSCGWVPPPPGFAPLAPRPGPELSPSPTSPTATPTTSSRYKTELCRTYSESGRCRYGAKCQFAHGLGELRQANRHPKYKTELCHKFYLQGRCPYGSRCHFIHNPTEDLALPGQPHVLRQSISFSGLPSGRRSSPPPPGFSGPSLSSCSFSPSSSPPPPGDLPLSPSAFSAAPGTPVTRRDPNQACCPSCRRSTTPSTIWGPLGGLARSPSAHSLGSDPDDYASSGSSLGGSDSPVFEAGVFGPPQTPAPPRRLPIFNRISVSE

[2] = target: T2, full-length human His6–MBP–RESIST–StrepII (human) (UniProt Q3ZCQ2); experiment: pull-down; 250 pmol His6–MBP–RESIST–StrepII held by its C-terminal StrepII tag on streptavidin agarose; 500 pmol NOT9 module for 1 h; 50 mM HEPES pH 7.5, 200 mM NaCl, 0.03% Tween-20, 6 °C; eluted with 50 mM biotin; SDS–PAGE, Coomassie; both purified
T2 sequence: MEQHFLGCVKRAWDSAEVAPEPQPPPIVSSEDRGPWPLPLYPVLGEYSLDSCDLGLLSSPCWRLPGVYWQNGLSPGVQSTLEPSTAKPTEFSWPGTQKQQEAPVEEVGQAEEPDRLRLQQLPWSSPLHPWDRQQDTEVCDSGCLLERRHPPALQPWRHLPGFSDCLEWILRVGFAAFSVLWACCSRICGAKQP

binding [1] | binding [2] | Substance
binds |  | CNOT1 (endogenous, HEK293T cells) (from UniProt A5YKK6 1-2376)
 | binds | NOT9 module: human CNOT9 and CNOT1 (amino acids 1351–1588) (from UniProt Q92600 1-299; A5YKK6 1351-1588) (complex)
